In all, about 390,000 compounds went through this assay and about 760 (0.19%) were called active. The shares of active, inactive and inconclusive entries below differ from those in the screen. Calls come from the whole dose curve; as a rule, active = well fitted inhibition curve with a large enough effect; inconclusive = small, poorly fitted or top-dose-only effect; inactive = flat fitted curve, though single readings scatter. A potency beside an inconclusive call is a rough fit, not a confirmed value.
assay: qHTS for Inhibitors of Vif-A3F Interactions: qHTS; details: HeLa A3F-eYFP + Vif (tagged APOBEC3F with the HIV-1 protein that degrades it), YFP fluorescence increase; series mostly up to 46.1 µM; activity, negative = active: at the top concentration; note: nearly all actives have a fitted effect of over 65% in size; for activity, negative = active: % of control where 0% means no effect
Summary of the method: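 HeLa cells stably expressing A3F-eYFP plus Vif, plated and incubated overnight at 37 deg C, then exposed to compounds overnight at 37 deg C. Blocked degradation read as raised yellow fluorescence (Ex 488/Em 500-530).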
Potency is the fitted concentration of half-maximal effect.

| Structure (SMILES) | activity, negative = active | Potency |
| --- | --- | --- |
| O=C(COC(=O)CNC(=O)c1ccc([N+](=O)[O-])o1)Nc1ncc(Cl)cc1Cl | inactive: 3.07% |  |
| CCc1nnc(NS(=O)(=O)c2ccc(NC(=O)c3cc(Cl)ccc3Cl)cc2)s1 | inactive: -3.18% |  |
| O=[N+]([O-])c1ccc(-c2nc(-c3ccncc3)no2)cc1 |  | inconclusive: 0.562 µM [inhibitor, full curve, poor fit] |
| Cc1ccc(-c2n[nH]c(=S)c3ccccc23)cc1S(=O)(=O)NCC1CCCO1 (stereo not drawn) |  | inconclusive: 35.5 µM [inhibitor, single point] |
| O=C(c1ccccc1F)N1CCN(Cc2ccc3c(c2)OCO3)CC1 | inactive: 7.85% |  |
| Fc1ccc(-n2nnnc2-c2ccccc2Cl)cc1 |  | inconclusive: 35.5 µM [inhibitor, single point] |
| Cc1cc2cc(CCNC(=O)C(=O)c3c[nH]c4ccccc34)c(=O)[nH]c2cc1C |  | inconclusive: 12.6 µM [inhibitor, single point] |
| COc1ccc(C(=O)OCC(=O)NC(C)CCc2ccccc2)cc1 (stereo not drawn) |  | inconclusive: 6.31 µM [inhibitor, single point] |
| Cc1nc(N2C(=O)c3oc4ccccc4c(=O)c3C2c2ccccc2F)sc1C (stereo not drawn) |  | inconclusive: 3.55 µM [inhibitor, single point] |
| O=C(CCN1CCCO1)N1CCCC(N2CCN(c3cccc(C(F)(F)F)c3)CC2)C1 (stereo not drawn) |  | inconclusive: 35.5 µM [inhibitor, single point] |
| CC(=O)c1cc(O)c2ccccc2c1O |  | inconclusive: 35.5 µM [inhibitor, single point] |
| O=C1CN(C(=O)c2ccccc2)C(c2ccccc2)c2cc(Cl)ccc2N1 (stereo not drawn) |  | inconclusive: 22.4 µM [inhibitor, single point] |
| Cc1ccccc1CN1CCN(C(=O)c2ccco2)CC1 |  | inconclusive: 6.31 µM [inhibitor, single point] |
| O=C(N/N=C/c1c(Cl)nc2ccccn2c1=O)c1cccnc1 |  | inconclusive: 25.1 µM [inhibitor, single point] |
| O=C(CCCOc1ccccc1)NC(=S)Nc1ccccc1 |  | inconclusive: 35.5 µM [inhibitor, single point] |
| Fc1ccc(NC(=S)Nc2cc(-c3ccccc3)[nH]n2)cc1Cl |  | inconclusive: 3.16 µM [inhibitor, partial curve, poor fit] |
| CN1/C(=C\C=N\NC(=O)c2cccnc2)C(C)(C)c2ccccc21 |  | inconclusive: 22.4 µM [inhibitor, partial curve, poor fit] |
| Cc1oc2c(c(C)cc3oc(=O)c(CC(=O)NCCc4ccccc4F)c(C)c32)c1C |  | inconclusive: 35.5 µM [inhibitor, single point] |
| CCN(c1ccccc1)S(=O)(=O)c1ccc(C(=O)Nc2nnc(-c3ccco3)o2)cc1 | inactive: -9% |  |
| CCCCc1cc(C)c(S(=O)(=O)c2ccccc2C)c(=O)[nH]1 |  | inconclusive: 35.5 µM [inhibitor, single point] |
| Cc1ccc(Cn2c(C(=O)O)c(CNCc3ccccc3Cl)c3ccc(C)cc32)cc1 | inactive: -8.43% |  |
| CC(C)Cn1c(O)c(/C=C2\C=NN=C2c2ccccc2)sc1=S | inactive: 6.01% |  |
| CCn1nc(NC(=O)CC(C)C)c2cc3cccc(C)c3nc21 | inactive: -0.603% |  |

| Structure (SMILES) | activity, negative = active | Potency |
| --- | --- | --- |
| CN(C)C(=O)c1cc(-c2ccccc2)no1 |  | inconclusive: 6.31 µM [inhibitor, single point] |
| CC(=O)Nc1ccc(C(=O)CSc2cc(C)c3cccc(C)c3n2)cc1 |  | inconclusive: 15.8 µM [inhibitor, partial curve, poor fit] |
| CCc1ccc(C2c3c(-c4ccccc4O)n[nH]c3C(=O)N2Cc2ccncc2)cc1 (stereo not drawn) | inactive: 2.51% |  |
| CC1=CC(C)(C)Nc2ccc(OC(=O)CCN3C(=O)c4ccccc4C3=O)cc21 |  | inconclusive: 35.5 µM [inhibitor, single point] |
| COc1cc(OC)c(OC)cc1/C=C1/C(=O)N=C(N)N1C |  | inconclusive: 8.91 µM [inhibitor, partial curve, poor fit] |
| COc1ccc(-c2cc(C(=O)NCCc3ccccc3)c3c(-c4ccc(Cl)cc4)[nH]nc3n2)cc1 |  | inconclusive: 5.62 µM [inhibitor, single point] |
| COC(=O)c1cc(=O)n(CCc2ccccc2F)c(=Nc2ccc(F)c(Cl)c2)s1 |  | inconclusive: 14.1 µM [inhibitor, partial curve, poor fit] |
| Nc1nnnn1CC(=O)N/N=C/C=C/c1ccccc1 |  | inconclusive: 35.5 µM [inhibitor, single point] |
| Cc1ccccc1C(=O)N1CCC2CC1c1cc(-c3ccc(F)cc3)ccc12 (stereo not drawn) |  | inconclusive: 35.5 µM [inhibitor, single point] |
| CN(C)S(=O)(=O)c1cccc(NC(=O)c2ccc(N3CCOCC3)c([N+](=O)[O-])c2)c1 |  | inconclusive: 4.47 µM [inhibitor, single point] |
| C/C(=C\C(=O)c1ccc(Cl)cc1Cl)N(C)C |  | inconclusive: 35.5 µM [inhibitor, single point] |
| CCOC(=O)C1(Cc2cccc(OC)c2)CCN(Cc2ccc3c(c2)OCCO3)CC1 |  | inconclusive: 4.47 µM [inhibitor, single point] |
| CCOC(=O)N1CC=C2C(C#N)=C(N)C(C#N)(C#N)[C@H](c3ccsc3)[C@H]2C1 | inactive: -9.99% |  |
| CN(CC(=O)Nc1ccccc1Sc1ccccc1)C1CCCCC1 |  | inconclusive: 35.5 µM [inhibitor, single point] |
| CCOC(=O)c1cc(-c2ccc(C)cc2)n(CC(=O)Nc2ccc(OC)cc2OC)c1C |  | inconclusive: 25.1 µM [inhibitor, partial curve, poor fit] |
| NNC(=S)NC1CCCCCCCCCCC1 |  | inconclusive: 2.82 µM [inhibitor, partial curve, poor fit] |
| Nc1nc(NCc2ccccc2)n(-c2ccccc2)n1 |  | inconclusive: 2.24 µM [inhibitor, full curve, poor fit] |
| O=C(NCc1cccnc1)c1ccc(-c2ccc(Cl)cc2)o1 |  | inconclusive: 15.8 µM [inhibitor, single point] |
| N#C/C(=C\c1ccc(-c2cccc(Cl)c2)o1)C(=O)Nc1cccc(C(F)(F)F)c1 |  | inconclusive: 2.51 µM [inhibitor, full curve, poor fit] |
| O=C(CNc1cc(S(=O)(=O)N2CCOCC2)ccc1NCC1CCCO1)Nc1ccc(F)c(F)c1 (stereo not drawn) |  | inconclusive: 10 µM [inhibitor, partial curve, poor fit] |
| O=S(=O)(Nc1ccccc1F)c1cccc(NC(=S)NCCN2CCOCC2)c1 | inactive: 2.91% |  |
| CCN(CC)CCCNC(=O)c1cc2c(-c3cccc(OC)c3)nn(C)c2s1 | inactive: -31.2% |  |
| COCCCNC(=O)c1ccc(Cn2c(=O)c3cccn3c3cccnc32)cc1 |  | inconclusive: 7.94 µM [inhibitor, partial curve] |

Single values from above:
Value of `COC(=O)c1cc(=O)n(CCc2ccccc2F)c(=Nc2ccc(F)c(Cl)c2)s1` under Potency: inconclusive: 14.1 µM [inhibitor, partial curve, poor fit]
Value of `CCc1nnc(NS(=O)(=O)c2ccc(NC(=O)c3cc(Cl)ccc3Cl)cc2)s1` under activity, negative = active: inactive: -3.18%
Value of `COCCCNC(=O)c1ccc(Cn2c(=O)c3cccn3c3cccnc32)cc1` under Potency: inconclusive: 7.94 µM [inhibitor, partial curve]

Next part:

| Structure (SMILES) | activity, negative = active | Potency |
| --- | --- | --- |
| COc1ccc(CCNC(=O)C(=O)NCCOc2ccccc2Cl)cc1OC | inactive: 0.187% |  |
| N=C1CCC(=N)c2c1c(O)c1ccccc1c2O | inactive: -17.3% |  |
| Cc1ccccc1NC(=S)NCc1ccco1 | inactive: 3.02% |  |
| CC(=O)Nc1ccc(S(=O)(=O)NCCC(=O)OCC(=O)c2ccccc2)cc1 |  | inconclusive: 6.31 µM [inhibitor, single point] |
| Nn1c(SCc2c(F)cccc2F)nnc1-c1ccccn1 |  | inconclusive: 31.6 µM [inhibitor, single point] |
| Cc1cccc(Cc2nnc(CCC(=O)NCc3cn4ccccc4n3)o2)c1 |  | inconclusive: 3.55 µM [inhibitor, single point] |
| O=c1c2ccccc2sn1-c1ccc(Cl)cc1 | inactive: -26% |  |
| CC[C@@H](C)CN1C(=O)N[C@@H](c2ccccc2)C(C(C)=O)=C1C |  | inconclusive: 35.5 µM [inhibitor, single point] |
| CNc1ccc(Br)cc(C(=O)/C=C/c2cccc(OC)c2OC)c1=O | inactive: -1.12% |  |
| COc1ccc(NC(=O)c2ccco2)cc1NC(=O)c1c(OC)cccc1OC |  | inconclusive: 35.5 µM [inhibitor, single point] |
| CC(C)Oc1ccc(Cl)cc1Nc1nc(NCCO)nc(N2CCCC2)n1 | inactive: 2.48% |  |
| CCNC(=S)N/N=C/c1ccc(-c2ccccc2)o1 |  | inconclusive: 6.31 µM [inhibitor, partial curve, poor fit] |
| COc1ccc(/C=C/C(=O)Nc2ccc(OC)cc2[N+](=O)[O-])cc1 |  | inconclusive: 31.6 µM [inhibitor, single point] |
| COc1cc(CO)cc(-c2cc(CO)cc(OC)c2OC)c1OC | inactive: 5% |  |
| COc1ccc(-n2cc(C(=O)Oc3cc(C)cc(C)c3)c3ccccc3c2=O)cc1 | inactive: -5.08% |  |
| COc1ccc(/C=N/N(Cc2ccccc2)c2ccccc2)cc1O | inactive: -31.2% |  |
| C=CCSc1nc2[nH]ncc2c(=O)[nH]1 |  | inconclusive: 6.31 µM [inhibitor, partial curve, poor fit] |
| O=c1oc2c3c4c(cc2c(C(F)(F)F)c1CCN1CCOCC1)CCCN4CCC3 |  | active: 7.94 µM |
| COc1ccc(CC(=O)Nc2ccc3nc(N4CCCCC4)cc(C)c3c2)cc1 |  | inconclusive: 35.5 µM [inhibitor, single point] |
| CCOC(=O)c1ccc(N=c2sc(C(=O)OC)cc(=O)n2-c2ccc(C(=O)OCC)cc2)cc1 |  | inconclusive: 12.6 µM [inhibitor, single point] |
| Cc1ccc(SC2=C(N(C)C)C(=O)c3ccccc3C2=O)cc1 |  | inconclusive: 25.1 µM [inhibitor, single point] |
| COc1ccccc1NC(=O)c1sc2nc3c(cc2c1N)CN(Cc1ccccc1)CC3 |  | inconclusive: 20 µM [inhibitor, partial curve, poor fit] |
